# System: MDA-MB231 cells
# Experiment: Coenzyme Q10 levels in MDA-MB231 cells treated with Coenzyme Q10
# Type: cell-based, human
# Settings: 24 and 48 hours after treatment
smiles,measurement,value
COC1=C(OC)C(=O)C(C/C=C(\C)CC/C=C(\C)CC/C=C(\C)CC/C=C(\C)CC/C=C(\C)CC/C=C(\C)CC/C=C(\C)CC/C=C(\C)CC/C=C(\C)CCC=C(C)C)=C(C)C1=O [Coenzyme Q10],Ratio of Coenzyme Q10 to endogenous Coenzyme Q9,significantly increased the ratio of Coenzyme Q10 to endogenous Coenzyme Q9
